Source: publication PMC8369502, “High-Throughput Drug Screening System Based on Human Induced Pluripotent Stem Cell-Derived Atrial Myocytes ∼ A Novel Platform to Detect Cardiac Toxicity for Atrial Arrhythmias” (Frontiers in Pharmacology, 2021)
Entries after “also recorded” stand apart in the source; their conditions may differ.

Test system: CT (control hiPS-CMs without RA, ventricular-like)
Experiment: High-throughput membrane potential recording (FluoVolt, FDSS/μCell) in CT
Format: cell-based, human
Description: Using a high-throughput screening system (FDSS/μCell), we assessed the drug toxicity of several experimental drugs on hiPS-derived atrial myocytes as well as control hiPS-derived cardiomyocytes. Membrane potential was used as one of the parameters during the assessment.
After purification, hiPS-derived cardiomyocytes were plated in 96-well plates for downstream drug response assessment using FluoVolt™ Membrane Potential Kit. […] The comparison of variance in the response of drug administration in CT and AM was represented by the percentage of changes based on their baseline values respectively.
FluoVolt™ Membrane Potential Kit (ThermoFisher […], F10488, Massachusetts, United States) was used to measure membrane potentials. The basic procedure was performed in accordance with the manufacturer’s instructions. […] MP were recorded at excitation and emission stages at wavelengths of 470 and 540 nm, respectively. […] Stock solutions of the test compounds were prepared in 100% DMSO, and serially diluted 1/40 into compound plates for testing (0.5% DMSO was the maximum concentration in all wells). The compounds were automatically pipetted from the compound plate, and 12 μL was loaded in the wells already containing the cells with 48 μL of media. Recording data were analyzed using Waveform Analysis of Cardiomyocyte Software (Ver.1.2.1J, Hamamatsu Photonics K.K.). Data values for a well were averaged from waveforms that arose during 30 s. The beat rate (BR; beats per minute), waveform amplitude (AMP), and duration at 30, 50, and 80% of decay (PWD30, PWD 50, and PWD 80, respectively) were used as evaluation parameters. PWDs were corrected using the Fridericia formula. PWD30-80 was calculated as the difference between PWD80 and PWD30. Each parameter was calculated as percentage change (%) from the value before test compound addition.

## Cc1cccc(CCN2CCC(C(=O)c3ccc(NS(C)(=O)=O)cc3)CC2)n1 [E-4031]
  EAD / irregular beating (in words): EAD was elicited; also recorded: increased the incidence of EAD in a dose-dependent manner
0.01 μM
  incidence of arrhythmia-like waveforms: EAD: 50%
0.03 μM
  incidence of arrhythmia-like waveforms: EAD: 83%
0.1 μM
  incidence of arrhythmia-like waveforms: EAD: 83%
